# This is one part of the list. Hit calls seldom repeat between salt and free forms of one compound.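 Kinases were expressed as nanoluciferase fusions in K562 cells and luminescence was read every 4 h between 2 and 18 h as percent of control, DMSO set to 100% and a positive control to 0%. A time point counts as decreased when the signal drops significantly (2 sigma). The hit call is the authors' own, does not follow from the count of time points alone, and its rule is not shown.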
# Molecular target: PRKCA (UniProt P17252)
# Assay: number of time points (of 5) at which kinase-Nluc abundance scored as decreased, DMSO-normalised (count); higher = more persistent destabilization
# Settings: K562; 2-18 h
row,SMILES,number of time points
1,C[C@@H](c1ccc2nccn2c1)n1nnc2ncc(-c3cnn(C)c3)nc21 [Savolitinib] (10 µM),0
2,CN1C(=O)C(Cc2c[nH]c3ccccc23)NC1=S (stereo unspecified) [Necrostatin-1] (10 µM),0
3,C[C@@H]1C(=O)O[C@H](C)[C@H]1C[C@@H](O)[C@](C)(O)[C@H]1CC[C@@]2(O)C3=CC(=O)[C@@H]4C[C@@H](O)[C@@H](O)C[C@]4(C)[C@H]3CC[C@]12C [Cyasterone] (10 µM),0
4,CC(c1ccc(-c2cnc3c(-c4ccc(S(N)(=O)=O)c5ccccc45)cnn3c2)cc1)N1CCCC1 (stereo unspecified) (2.5 µM),0
5,CCn1c(=O)c(-c2ccc(-c3cncc(C)n3)cc2Cl)cc2cnc(NCCC3CCN(C)CC3)nc21 (10 µM),0
6,"O=C(O)c1cc(O)ccc1O [2,5-Dihydroxybenzoic acid] (10 µM)",0
7,CC(=NNC(=O)c1ccc(C)c(Br)c1)c1ccc(O)cc1O [mTOR inhibitor-1] (2.5 µM),0
8,Nc1ncnc2c1ncn2[C@@H]1O[C@H](CO)C[C@H]1O [Cordycepin] (10 µM),0
9,C=CC(=O)Nc1cc2c(Nc3ccc(OCc4ccccn4)c(Cl)c3)ncnc2cc1OCCN1CCOCC1 (10 µM),0
10,Cc1ccc(S(=O)(=O)Nc2ccccc2C=Nc2ccccc2NS(=O)(=O)c2ccc(C)cc2)cc1 (10 µM),0
11,CCOc1cc(C(=O)N2CCC(N3CCN(C)CC3)CC2)ccc1Nc1ncc2c(n1)N(C1CCCC1)c1ccccc1C(=O)N2C (10 µM),0

# Reference: the supplement of paper PMC12823440, “Inhibitors supercharge kinase turnover through native proteolytic circuits” (Nature, 2025)
